These are yes or no findings as the source states them, for the method shown. In cells and extracts the contact can be indirect. A yes stands for co-enrichment or nearness to the bait. Other partners may have been found.
What was measured:
Dbp7-TAP (S. cerevisiae) = target: T1, Dbp7-TAP (S. cerevisiae) (UniProt P36120); experiment: affinity purification with mass spectrometry; Dbp7-TAP captured from whole-cell lysate on IgG sepharose (50 mM Tris-HCl pH 7.8, 150 mM NaCl, 1.5 mM MgCl2, 0.05% NP-40, 2 mM DTT), eluted with TEV protease overnight at 4 °C; input and eluate by MS, wild-type extract as control; co-purified pre-ribosomal particles
T1 sequence: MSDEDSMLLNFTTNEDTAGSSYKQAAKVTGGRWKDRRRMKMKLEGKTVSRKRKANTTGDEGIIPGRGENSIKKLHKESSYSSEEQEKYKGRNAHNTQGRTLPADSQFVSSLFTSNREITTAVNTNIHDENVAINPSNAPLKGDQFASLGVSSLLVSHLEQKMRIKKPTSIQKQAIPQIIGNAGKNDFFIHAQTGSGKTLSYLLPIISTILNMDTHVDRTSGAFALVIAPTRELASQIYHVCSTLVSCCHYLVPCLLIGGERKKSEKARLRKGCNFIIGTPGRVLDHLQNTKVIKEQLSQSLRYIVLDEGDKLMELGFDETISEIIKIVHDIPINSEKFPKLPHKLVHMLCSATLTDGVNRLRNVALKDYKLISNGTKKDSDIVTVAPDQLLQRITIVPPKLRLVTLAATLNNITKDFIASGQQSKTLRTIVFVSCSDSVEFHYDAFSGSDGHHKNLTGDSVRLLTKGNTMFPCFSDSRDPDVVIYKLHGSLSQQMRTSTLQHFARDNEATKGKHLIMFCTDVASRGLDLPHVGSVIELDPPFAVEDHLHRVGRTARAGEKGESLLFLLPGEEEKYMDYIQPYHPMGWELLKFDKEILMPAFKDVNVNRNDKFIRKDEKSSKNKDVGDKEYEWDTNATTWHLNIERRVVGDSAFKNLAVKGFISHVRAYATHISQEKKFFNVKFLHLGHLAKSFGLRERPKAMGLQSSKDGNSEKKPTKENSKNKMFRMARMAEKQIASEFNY

By UniProt entry, the sequences of proteins in these tests, tags left out.
UniProt P14126: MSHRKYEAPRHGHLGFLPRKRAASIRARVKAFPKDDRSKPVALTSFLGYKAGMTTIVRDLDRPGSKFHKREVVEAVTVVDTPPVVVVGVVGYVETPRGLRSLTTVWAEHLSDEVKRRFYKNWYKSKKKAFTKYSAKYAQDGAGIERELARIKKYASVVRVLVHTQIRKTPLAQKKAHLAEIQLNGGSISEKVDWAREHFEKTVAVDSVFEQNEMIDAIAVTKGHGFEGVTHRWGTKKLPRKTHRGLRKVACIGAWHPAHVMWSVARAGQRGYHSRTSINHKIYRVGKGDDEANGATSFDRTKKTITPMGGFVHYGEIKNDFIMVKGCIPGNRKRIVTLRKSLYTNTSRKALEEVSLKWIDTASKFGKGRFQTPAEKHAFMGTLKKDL

Nop2-TAP (S. cerevisiae) = target: T2, Nop2-TAP (S. cerevisiae) (UniProt P40991); experiment: affinity purification with mass spectrometry; Nop2-TAP particles isolated from whole-cell lysate of wild-type and Δdbp7 cells on IgG sepharose, eluted by overnight TEV cleavage; MS, two biological replicates
T2 sequence: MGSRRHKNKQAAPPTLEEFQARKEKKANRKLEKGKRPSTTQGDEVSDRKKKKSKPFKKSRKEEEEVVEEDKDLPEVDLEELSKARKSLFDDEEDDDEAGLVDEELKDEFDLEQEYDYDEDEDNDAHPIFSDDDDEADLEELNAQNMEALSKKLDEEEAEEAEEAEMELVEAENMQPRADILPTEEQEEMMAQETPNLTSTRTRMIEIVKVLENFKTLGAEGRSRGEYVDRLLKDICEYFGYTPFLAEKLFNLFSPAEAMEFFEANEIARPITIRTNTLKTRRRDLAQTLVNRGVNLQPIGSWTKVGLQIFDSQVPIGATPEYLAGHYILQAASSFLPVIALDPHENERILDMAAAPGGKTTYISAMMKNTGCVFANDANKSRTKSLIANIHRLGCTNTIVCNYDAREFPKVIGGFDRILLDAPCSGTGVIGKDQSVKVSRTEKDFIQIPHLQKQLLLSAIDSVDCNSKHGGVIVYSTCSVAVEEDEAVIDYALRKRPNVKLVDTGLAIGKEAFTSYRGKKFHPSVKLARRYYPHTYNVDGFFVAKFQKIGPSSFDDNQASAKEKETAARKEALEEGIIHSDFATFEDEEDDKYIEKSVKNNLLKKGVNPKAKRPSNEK

binding (Dbp7-TAP (S. cerevisiae)): binds
binding (Nop2-TAP (S. cerevisiae)): binds
Substance: uL3 (from UniProt P14126 1-387)

Reference: PMC8536713
